According to US20160279215A1, “NOVEL PEPTIDES AND COMBINATION OF PEPTIDES FOR USE IN IMMUNOTHERAPY AGAINST VARIOUS TUMORS” (immatics biotechnologies GmbH, priority 2015, published 2016):

Experiments:
Set-up in all cases: species or system human
[1] = test system: source genes of the peptides (mRNA) in tumor and normal tissue; test: Expression profiling of source genes by RNAseq (target coverage); conditions: share of tumors with more than 1.5-fold over-expression vs highest-expressing relevant normal tissue; for Target coverage for source genes, AML (%): acute myeloid leukemia; for Target coverage for source genes, BRCA (%): breast cancer; for Target coverage for source genes, CLL (%): chronic leukemia (CLL); for Target coverage for source genes, OSCAR (%): esophageal cancer incl. gastric-oesophageal junction; for Target coverage for source genes, GBC_CCC (%): gallbladder adenocarcinoma and cholangiocarcinoma; for Target coverage for source genes, MEL (%): melanoma; for Target coverage for source genes, OC (%): ovarian cancer; for Target coverage for source genes, SCLC (%): small cell lung cancer; for Target coverage for source genes, UBC (%): urinary bladder cancer; for Target coverage for source genes, UTC (%): uterine cancer; for Target coverage for source genes, NHL (%): non-Hodgkin lymphoma
[2] = test system: source genes of the peptides (mRNA) in tumor and normal tissue; test: Expression profiling of source genes by Affymetrix microarrays (target coverage); conditions: over-expression = more than 1.5-fold higher expression on tumor vs. normal tissue with highest expression, gene with minimal coverage decisive; for Target coverage for source genes of selected peptides, BPHI/PCA (%): BPHI/PCA (prostate cancer) samples; for Target coverage for source genes of selected peptides, CRC (%): CRC tumor samples; for Target coverage for source genes of selected peptides, GB (%): GB tumor samples; for Target coverage for source genes of selected peptides, GC (%): GC tumor samples; for Target coverage for source genes of selected peptides, HCC (%): HCC tumor samples; for Target coverage for source genes of selected peptides, NSCLC (%): NSCLC tumor samples; for Target coverage for source genes of selected peptides, PC (%): PC tumor samples; for Target coverage for source genes of selected peptides, RCC (%): RCC tumor samples
[3] = Identification and label-free relative LC-MS quantitation of HLA-presented peptides on tumor and normal tissue samples (XPRESIDENT presentation profiles); conditions: for Entities of particular interest: entities where the peptide was over-presented on cancer samples compared to normal tissues; for Additional entities of particular interest (presentation of selected peptides across entities): tumor entities on which the HLA-presented peptide was found, entity abbreviations defined in the title of Table 4B

242: peptide found in CENPE (gene looked up) (KLQEEIPVL; listed as Homo sapiens) [compound 242]
Target coverage for source genes, AML (%) [1]: I (<19% over-expression = I) | Target coverage for source genes, BRCA (%) [1]: I (<19% over-expression = I) | Target coverage for source genes, CLL (%) [1]: I (<19% over-expression = I) | Target coverage for source genes, OSCAR (%) [1]: I (<19% over-expression = I) | Target coverage for source genes, GBC_CCC (%) [1]: I (<19% over-expression = I) | Target coverage for source genes, MEL (%) [1]: I (<19% over-expression = I) | Target coverage for source genes, OC (%) [1]: I (<19% over-expression = I) | Target coverage for source genes, SCLC (%) [1]: I (<19% over-expression = I) | Target coverage for source genes, UBC (%) [1]: I (<19% over-expression = I) | Target coverage for source genes, UTC (%) [1]: I (<19% over-expression = I) | Target coverage for source genes of selected peptides, BPHI/PCA (%) [2]: I (<19% over-expression = I) | Target coverage for source genes of selected peptides, CRC (%) [2]: II (20-49% = II) | Target coverage for source genes of selected peptides, GB (%) [2]: III (50-69% = III) | Target coverage for source genes of selected peptides, GC (%) [2]: II (20-49% = II) | Target coverage for source genes of selected peptides, HCC (%) [2]: I (<19% over-expression = I) | Target coverage for source genes of selected peptides, NSCLC (%) [2]: II (20-49% = II) | Target coverage for source genes of selected peptides, PC (%) [2]: I (<19% over-expression = I) | Target coverage for source genes of selected peptides, RCC (%) [2]: I (<19% over-expression = I) | Entities of particular interest [3]: GB, NSCLC, CRC | Additional entities of particular interest (presentation of selected peptides across entities) [3]: BRCA, MEL, NHL

234: peptide found in NCAPG (gene looked up) (VLLNEILEQV; listed as Homo sapiens) [compound 234]
Target coverage for source genes, AML (%) [1]: I (<19% over-expression = I) | Target coverage for source genes, BRCA (%) [1]: I (<19% over-expression = I) | Target coverage for source genes, CLL (%) [1]: I (<19% over-expression = I) | Target coverage for source genes, OSCAR (%) [1]: I (<19% over-expression = I) | Target coverage for source genes, GBC_CCC (%) [1]: I (<19% over-expression = I) | Target coverage for source genes, MEL (%) [1]: I (<19% over-expression = I) | Target coverage for source genes, NHL (%) [1]: I (<19% over-expression = I) | Target coverage for source genes, OC (%) [1]: I (<19% over-expression = I) | Target coverage for source genes, SCLC (%) [1]: III (50-69% = III) | Target coverage for source genes, UBC (%) [1]: I (<19% over-expression = I) | Target coverage for source genes, UTC (%) [1]: I (<19% over-expression = I) | Target coverage for source genes of selected peptides, BPHI/PCA (%) [2]: I (<19% over-expression = I) | Target coverage for source genes of selected peptides, CRC (%) [2]: IV (>70% = IV) | Target coverage for source genes of selected peptides, GB (%) [2]: III (50-69% = III) | Target coverage for source genes of selected peptides, GC (%) [2]: III (50-69% = III) | Target coverage for source genes of selected peptides, HCC (%) [2]: I (<19% over-expression = I) | Target coverage for source genes of selected peptides, NSCLC (%) [2]: III (50-69% = III) | Target coverage for source genes of selected peptides, PC (%) [2]: I (<19% over-expression = I) | Target coverage for source genes of selected peptides, RCC (%) [2]: I (<19% over-expression = I) | Entities of particular interest [3]: GC, NSCLC, HCC, OC, MEL, RCC, CRC, PC, OSCAR | Additional entities of particular interest (presentation of selected peptides across entities) [3]: CLL, SCLC, UBC, UTC, BRCA, AML, NHL

252: peptide found in KIF4A (gene looked up) (SLMEKNQSL; listed as Homo sapiens) [compound 252]
Target coverage for source genes, AML (%) [1]: I (<19% over-expression = I) | Target coverage for source genes, BRCA (%) [1]: I (<19% over-expression = I) | Target coverage for source genes, CLL (%) [1]: I (<19% over-expression = I) | Target coverage for source genes, OSCAR (%) [1]: I (<19% over-expression = I) | Target coverage for source genes, GBC_CCC (%) [1]: I (<19% over-expression = I) | Target coverage for source genes, MEL (%) [1]: I (<19% over-expression = I) | Target coverage for source genes, OC (%) [1]: I (<19% over-expression = I) | Target coverage for source genes, SCLC (%) [1]: II (20-49% = II) | Target coverage for source genes, UBC (%) [1]: I (<19% over-expression = I) | Target coverage for source genes, UTC (%) [1]: I (<19% over-expression = I) | Target coverage for source genes of selected peptides, BPHI/PCA (%) [2]: I (<19% over-expression = I) | Target coverage for source genes of selected peptides, CRC (%) [2]: IV (>70% = IV) | Target coverage for source genes of selected peptides, GB (%) [2]: III (50-69% = III) | Target coverage for source genes of selected peptides, GC (%) [2]: III (50-69% = III) | Target coverage for source genes of selected peptides, HCC (%) [2]: I (<19% over-expression = I) | Target coverage for source genes of selected peptides, NSCLC (%) [2]: II (20-49% = II) | Target coverage for source genes of selected peptides, PC (%) [2]: II (20-49% = II) | Target coverage for source genes of selected peptides, RCC (%) [2]: I (<19% over-expression = I) | Entities of particular interest [3]: NSCLC, OC, CRC, OSCAR, RCC | Additional entities of particular interest (presentation of selected peptides across entities) [3]: AML

1: peptide found in CENPE (gene looked up) (KLQEKIQEL; listed as Homo sapiens) [compound 1]
Target coverage for source genes, AML (%) [1]: I (<19% over-expression = I) | Target coverage for source genes, BRCA (%) [1]: I (<19% over-expression = I) | Target coverage for source genes, CLL (%) [1]: I (<19% over-expression = I) | Target coverage for source genes, OSCAR (%) [1]: I (<19% over-expression = I) | Target coverage for source genes, GBC_CCC (%) [1]: I (<19% over-expression = I) | Target coverage for source genes, MEL (%) [1]: I (<19% over-expression = I) | Target coverage for source genes, NHL (%) [1]: I (<19% over-expression = I) | Target coverage for source genes, OC (%) [1]: I (<19% over-expression = I) | Target coverage for source genes, SCLC (%) [1]: I (<19% over-expression = I) | Target coverage for source genes, UBC (%) [1]: I (<19% over-expression = I) | Target coverage for source genes, UTC (%) [1]: I (<19% over-expression = I) | Target coverage for source genes of selected peptides, BPHI/PCA (%) [2]: I (<19% over-expression = I) | Target coverage for source genes of selected peptides, CRC (%) [2]: II (20-49% = II) | Target coverage for source genes of selected peptides, GB (%) [2]: III (50-69% = III) | Target coverage for source genes of selected peptides, GC (%) [2]: II (20-49% = II) | Target coverage for source genes of selected peptides, HCC (%) [2]: I (<19% over-expression = I) | Target coverage for source genes of selected peptides, NSCLC (%) [2]: II (20-49% = II) | Target coverage for source genes of selected peptides, PC (%) [2]: I (<19% over-expression = I) | Target coverage for source genes of selected peptides, RCC (%) [2]: I (<19% over-expression = I) | Entities of particular interest [3]: GB, GC, NSCLC, HCC, OC, RCC, CRC, PC, OSCAR | Additional entities of particular interest (presentation of selected peptides across entities) [3]: MEL, AML, NHL

267: peptide found in TOP2A (gene looked up) (YLLDMPLWYL; listed as Homo sapiens) [compound 267]
Target coverage for source genes, AML (%) [1]: I (<19% over-expression = I) | Target coverage for source genes, BRCA (%) [1]: I (<19% over-expression = I) | Target coverage for source genes, CLL (%) [1]: I (<19% over-expression = I) | Target coverage for source genes, OSCAR (%) [1]: I (<19% over-expression = I) | Target coverage for source genes, GBC_CCC (%) [1]: I (<19% over-expression = I) | Target coverage for source genes, MEL (%) [1]: I (<19% over-expression = I) | Target coverage for source genes, NHL (%) [1]: II (20-49% = II) | Target coverage for source genes, OC (%) [1]: I (<19% over-expression = I) | Target coverage for source genes, SCLC (%) [1]: III (50-69% = III) | Target coverage for source genes, UBC (%) [1]: I (<19% over-expression = I) | Target coverage for source genes, UTC (%) [1]: I (<19% over-expression = I) | Target coverage for source genes of selected peptides, BPHI/PCA (%) [2]: I (<19% over-expression = I) | Target coverage for source genes of selected peptides, CRC (%) [2]: IV (>70% = IV) | Target coverage for source genes of selected peptides, GB (%) [2]: IV (>70% = IV) | Target coverage for source genes of selected peptides, GC (%) [2]: IV (>70% = IV) | Target coverage for source genes of selected peptides, HCC (%) [2]: II (20-49% = II) | Target coverage for source genes of selected peptides, NSCLC (%) [2]: IV (>70% = IV) | Target coverage for source genes of selected peptides, PC (%) [2]: III (50-69% = III) | Target coverage for source genes of selected peptides, RCC (%) [2]: II (20-49% = II) | Entities of particular interest [3]: NSCLC, RCC, CRC, OC, MEL | Additional entities of particular interest (presentation of selected peptides across entities) [3]: AML, NHL

For some of these results: For expression read-outs the peptide stands for its source gene, whose mRNA was measured; the gene is not named for every peptide.
